These are yes or no findings as the source states them, for the method shown. Binding can be weak; no strength is given. One block for each binder: values may come before it.
Biological target: PCSK9Δhelix (human) (UniProt Q8NBP7)
Assay: phage spot ELISA

Sequences of proteins named here, by UniProt entry; tags and fusion partners are left off. A change or cut given only in a name is not applied to a line headed by its entry.
UniProt Q8NBP7: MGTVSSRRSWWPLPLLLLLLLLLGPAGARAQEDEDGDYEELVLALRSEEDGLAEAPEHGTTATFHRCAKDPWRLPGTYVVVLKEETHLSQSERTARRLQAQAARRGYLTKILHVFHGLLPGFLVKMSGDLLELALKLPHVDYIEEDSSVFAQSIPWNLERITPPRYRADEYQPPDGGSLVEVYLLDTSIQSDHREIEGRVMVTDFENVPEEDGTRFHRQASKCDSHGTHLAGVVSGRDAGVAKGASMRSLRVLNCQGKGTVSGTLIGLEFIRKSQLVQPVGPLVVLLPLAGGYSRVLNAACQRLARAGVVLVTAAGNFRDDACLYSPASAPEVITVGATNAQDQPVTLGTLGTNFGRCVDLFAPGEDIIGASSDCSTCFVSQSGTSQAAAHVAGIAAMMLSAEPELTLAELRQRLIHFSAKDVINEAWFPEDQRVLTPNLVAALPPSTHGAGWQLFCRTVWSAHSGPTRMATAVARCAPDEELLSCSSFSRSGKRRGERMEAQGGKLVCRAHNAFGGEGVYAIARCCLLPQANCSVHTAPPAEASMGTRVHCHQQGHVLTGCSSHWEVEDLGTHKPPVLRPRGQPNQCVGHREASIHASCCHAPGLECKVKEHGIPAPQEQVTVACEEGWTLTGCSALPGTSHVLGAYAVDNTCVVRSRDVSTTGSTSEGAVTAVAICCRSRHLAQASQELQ

binding: binds
B1: SEQ ID NO 351 (peptide)
chain: TAFTSWEEYLDWVGSGSPCRVGYTPC

binding: binds
B2: SEQ ID NO 375 (peptide)
chain: SGLAPTVSDS

binding: binds
B4: SEQ ID NO 367 (peptide)
chain: SGNCWSSLRGICENLG

binding: binds
B5: SEQ ID NO 341 (peptide)
chain: TAFTSWEEYLDWVGSGQTTYLRVSSS

binding: binds
B7: SEQ ID NO 348 (peptide)
chain: TAFTSWEEYLDWVGSGVCSDHYIGGKEVRC

binding: binds
B9: SEQ ID NO 358 (peptide)
chain: TAFTSWEEYLDWVGSGGCGYRYMCDMINGL

binding: binds
B10: SEQ ID NO 346 (peptide)
chain: TAFTSWEEYLDWVGSGQELPNHRRLS

binding: binds
B11: SEQ ID NO 376 (peptide)
chain: SGDTRSQLSH

binding: binds
B14: SEQ ID NO 345 (peptide)
chain: TAFTSWEEYLDWVGSGGDCGYHYMCSMT

binding: binds
B18: SEQ ID NO 360 (peptide)
chain: TAFTSWEEYLDWVGSGDCLRYRVGSSCS

binding: binds
B20: SEQ ID NO 331 (peptide)
chain: TAFTSWEEYLDWVGSGNPTYWLTRIS

binding: binds
B22: SEQ ID NO 370 (peptide)
chain: SGEHQFYSYRGVDVYR

binding: binds
B24: SEQ ID NO 337 (peptide)
chain: TAFTSWEEYLDWVGSGCMEAWQCSLA

binding: binds
B30: SEQ ID NO 373 (peptide)
chain: SGCWTYLRGGCSVT

binding: binds
B33: SEQ ID NO 338 (peptide)
chain: TAFTSWEEYLDWVGSGQCYPWCRL

binding: binds
B34: SEQ ID NO 372 (peptide)
chain: SGSYRGAWSVFGGSTD

binding: binds
B36: SEQ ID NO 330 (peptide)
chain: TAFTSWEEYLDWVGSGEDVVCYGRVDYMPLCV

binding: binds
B39: SEQ ID NO 334 (peptide)
chain: TAFTSWEEYLDWVGSGCVKVGLSWIGDCNS

binding: binds
B40: SEQ ID NO 362 (peptide)
chain: TAFTSWEEYLDWVGSGRCESKGWANTCVSE

binding: binds
B43: SEQ ID NO 335 (peptide)
chain: TAFTSWEEYLDWVGSGGVLGVGGMWIA

binding: binds
B44: SEQ ID NO 343 (peptide)
chain: TAFTSWEEYLDWVGSGRGEVYDKGGVIVHL

binding: binds
B47: SEQ ID NO 377 (peptide)
chain: SGAGKLDLSG

Second part, the binder before the results:

B3: SEQ ID NO 333 (peptide)
chain: TAFTSWEEYLDWVGSGDCNLWGDDGKYRLCF
binding: binds

B6: SEQ ID NO 347 (peptide)
chain: TAFTSWEEYLDWVGSGNMCYLRGKMDCNIV
binding: binds

B8: SEQ ID NO 340 (peptide)
chain: TAFTSWEEYLDWVGSGPRTYLRGLVD
binding: binds

B12: SEQ ID NO 357 (peptide)
chain: TAFTSWEEYLDWVGSGKMTHMKAD
binding: binds

B13: SEQ ID NO 359 (peptide)
chain: TAFTSWEEYLDWVGSGGDCYPHCRLV
binding: binds

B15: SEQ ID NO 361 (peptide)
chain: TAFTSWEEYLDWVGSGPTSGLTPS
binding: binds

B16: SEQ ID NO 352 (peptide)
chain: TAFTSWEEYLDWVGSGNCARLYSHQRDYSQVC
binding: binds

B17: SEQ ID NO 339 (peptide)
chain: TAFTSWEEYLDWVGSGCWTYLRGGCSVT
binding: binds

B19: SEQ ID NO 368 (peptide)
chain: SGMVYVDRGVRVFT
binding: binds

B21: SEQ ID NO 363 (peptide)
chain: TAFTSWEEYLDWVGSGQVTSLPQA
binding: binds

B23: SEQ ID NO 366 (peptide)
chain: SGPRTYLRGLVD
binding: binds

B25: SEQ ID NO 365 (peptide)
chain: TAFTSWEEYLDWVGSGRCGLAWCVVLVDQ
binding: binds

B26: SEQ ID NO 356 (peptide)
chain: TAFTSWEEYLDWVGSGKCDSHYIRGVVACH
binding: binds

B27: SEQ ID NO 355 (peptide)
chain: TAFTSWEEYLDWVGSGCYPLCRVG
binding: binds

B28: SEQ ID NO 353 (peptide)
chain: TAFTSWEEYLDWVGSGCLDRSGGCYTREGYLS
binding: binds

B29: SEQ ID NO 342 (peptide)
chain: TAFTSWEEYLDWVGSGQISYLRNA
binding: binds

B31: SEQ ID NO 374 (peptide)
chain: SGTPEMPAML
binding: binds

B32: SEQ ID NO 369 (peptide)
chain: SGGCVKYRGSVSCQESKT
binding: binds

B35: SEQ ID NO 364 (peptide)
chain: TAFTSWEEYLDWVGSGCYPLCRVL
binding: binds

B37: SEQ ID NO 332 (peptide)
chain: TAFTSWEEYLDWVGSGPHSYWLDRVQ
binding: binds

B38: SEQ ID NO 350 (peptide)
chain: TAFTSWEEYLDWVGSGSETGLGTYYG
binding: binds

B41: SEQ ID NO 336 (peptide)
chain: TAFTSWEEYLDWVGSGSYRGAWSVFGGSTD
binding: binds

B42: SEQ ID NO 344 (peptide)
chain: TAFTSWEEYLDWVGSGGREMRSVIQM
binding: binds

B45: SEQ ID NO 371 (peptide)
chain: SGACLNHFVSGNMIRC
binding: binds

B46: SEQ ID NO 354 (peptide)
chain: TAFTSWEEYLDWVGSGSSTWHFVGGVRV
binding: binds
